# PMC3805573, “Methylglyoxal Evokes Pain by Stimulating TRPA1” (PLoS ONE, 2013)
# Tested on: TRPA1
# Assay: Excised inside-out patches, TRPA1 channel activity
# Format: cell-based
# Details: TRPA1 channels activated by methylglyoxal, inside-out patch
# Method: DRG neurons and TRPA1 CHO cells were studied under voltage-clamp conditions using an Axopatch 200B amplifier and pClamp 10.0 software (Molecular Devices, Sunnyvale, CA). Except where stated otherwise, whole cell recordings were performed at a holding potential of –60 mV using an extracellular solution with the composition described above for [Ca^2+]i measurements. Borosilicate glass pipettes (2–5 MΩ, 75–80% series resistance compensation) were filled with (in mM) 140 KCl, 1 CaCl2, 2 MgATP, 10 EGTA, and 10 HEPES buffered to pH 7.4 (KOH). Excised inside-out patches were recorded using a Ca^2+-free solution containing (in mM) 140 NaCl, 5 KCl, 1 MgCl2, 10 HEPES and 1 EGTA, pH 7.4 (NaOH) in the pipettes and perfused with 140 KCl, 2 MgATP, 1 EGTA, and 10 HEPES (pH 7.4). DRG neurons were studied using an intracellular solution containing (in mM) 140 CsCl, 1 CaCl2, 2 MgATP, 10 EGTA and 10 HEPES, pH 7.4 (CsOH). Drugs were applied by local microperfusion with a rapid solution changer (RSC-200, Biologic, Claix, France).
structure (smiles),measurement,setting,value
"CC(=O)C=O [MG, methylglyoxal]",single channel conductance,+60 mV,120 pS
same,single channel conductance,+100 mV,150 pS
same,single channel conductance,-20 to -60 mV,70-80 pS
